Test results reported in publication PMC6179088.
For at least one entry, the source does not settle the construct or the ends of the probe. Results from cells or extracts need not show a direct contact. At least one verdict rests on a figure or table, not on a statement of the authors.

Amino acid sequences for entries named in this document (tags omitted). Residues count along the entry.
UniProt Q13308, 31-1070: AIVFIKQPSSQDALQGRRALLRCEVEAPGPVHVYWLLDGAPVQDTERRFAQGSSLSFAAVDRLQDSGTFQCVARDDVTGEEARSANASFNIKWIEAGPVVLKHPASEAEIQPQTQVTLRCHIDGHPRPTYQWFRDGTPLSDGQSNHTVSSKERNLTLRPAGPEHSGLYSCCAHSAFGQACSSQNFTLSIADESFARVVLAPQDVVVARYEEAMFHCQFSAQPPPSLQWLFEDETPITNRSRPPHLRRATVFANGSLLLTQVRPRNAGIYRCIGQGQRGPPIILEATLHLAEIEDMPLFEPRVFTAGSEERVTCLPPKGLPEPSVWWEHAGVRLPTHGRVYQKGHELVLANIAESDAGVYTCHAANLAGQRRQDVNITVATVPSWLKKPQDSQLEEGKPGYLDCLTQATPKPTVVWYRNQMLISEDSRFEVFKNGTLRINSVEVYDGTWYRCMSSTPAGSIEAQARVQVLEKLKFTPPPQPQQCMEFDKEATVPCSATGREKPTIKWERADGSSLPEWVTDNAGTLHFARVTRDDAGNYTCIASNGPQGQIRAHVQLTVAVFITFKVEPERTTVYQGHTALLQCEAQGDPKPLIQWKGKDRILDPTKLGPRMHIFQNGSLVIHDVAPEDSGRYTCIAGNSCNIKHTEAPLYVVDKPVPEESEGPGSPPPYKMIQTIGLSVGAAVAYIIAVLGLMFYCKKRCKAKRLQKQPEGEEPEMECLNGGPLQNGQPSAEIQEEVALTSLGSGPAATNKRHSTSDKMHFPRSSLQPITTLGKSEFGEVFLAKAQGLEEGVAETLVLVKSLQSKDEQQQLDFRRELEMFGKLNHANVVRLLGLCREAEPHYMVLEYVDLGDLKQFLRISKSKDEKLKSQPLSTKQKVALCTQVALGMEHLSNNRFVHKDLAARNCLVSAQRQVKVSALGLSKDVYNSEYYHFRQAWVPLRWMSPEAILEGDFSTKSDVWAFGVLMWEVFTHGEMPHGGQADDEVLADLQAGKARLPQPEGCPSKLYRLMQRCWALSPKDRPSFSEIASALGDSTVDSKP

Target: PTK7 (membrane protein on HeLa cells) (UniProt Q13308)
Test: confocal fluorescence imaging of HeLa cells (TAMRA recovery on target binding)
Conditions: aptamer conjugated to ZrMOF nanoparticles, 25 ug/mL, 2 h, random library pool conjugate gave negligible fluorescence; 5' phosphate (printed H2PO3), coordinated to ZrMOF nanoparticle; HeLa cells in complete DMEM (10% FBS), 37 °C, 5% CO2, 2 h, 25 ug/mL nanoparticles, then washed twice; protein on the cell surface; label: 3' TAMRA; folded or branched DNA

## TTTTTTTTTTATCTAACTGCTGCGCCGCCGGGAAAATACTGTACGGTTAGA
  binding result: binds
